Measured values: the supplement of paper PMC10338343
± gives the standard deviation. This is a selection; strong and weak results do not stand in their true shares. The uncertainty is large for many entries.

test system: MIWI (PIWIL1) piRISC loaded with Kctd7 piRNA (30 nt); experiment: pre-steady-state target cleavage rate (min^-1); MIWI and MILI are mouse PIWI proteins and EfPiwi is from a freshwater sponge; tags in brackets are library labels; higher = faster piRNA-guided slicing of the target; details: guide: Kctd7 piRNA 5'p-UGUUAAUCUCUCAGAGAAGGUGACAGUGAU; auxiliary factor: 500 nM mouse GTSF1
Method in brief: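 Cleave-'n-Seq reactions paired 0.1 nM transcribed, DNA-blocked target RNA library with 1 nM active affinity-purified piRISC holding one synthetic guide, plus or minus 500 nM GTSF1 partner protein, in HEPES–potassium acetate buffer at 33 °C for 0–8 or 0–960 min. After sequencing of uncleaved targets and normalisation to depth and weakly complementary targets, the pre-steady-state cleavage rate was taken from a burst-and-steady-state fit. Three trials were pooled, and k3 was capped at 0.0001 min^-1.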

Sequence | pre-steady-state target cleavage rate
UAGUGACAGUCCAACUCUGAGAGAUUAACA | 0.000326 ± 0.0088
UAGACUGUCACCUUCUCUGAGAGAUUAAUA | 0.414 ± 0.035
UAGUGACAGACCUUCUCUGAGGAUUAACA | 0.000818 ± 0.0082
UAGUGACACACCUUCUGAGAGAGAUUAUGA | 0.00153 ± 0.0098
UUCUCUGUGACCUUCUCUGAGAGAUUAACA | 0.491 ± 0.023
UAGUGACAGUGGAACUCUGAGAGAUUAUCA | 0.00014 ± 0.038
UAGUGACAGUGGUUCUCUGGAGAUUAACA | 0.00157 ± 0.0045
UAGUGUGUCACCUUCUCUGUCUGAUUUUGA | 0.000808 ± 0.018
AUCACUGUCACCUUCUCUGUCUGAUUAACA | 0.00339 ± 0.0039
UUCACUGUCACCUGCUCUGAGAGAUUAACA | 0.645 ± 0.031
UAGUGACAGUGGAACUCUGAGAGCAUUAACA | 0.00024 ± 0.02
UAGUGACAGACCUUCAGUGAGAGAUUUUGA | 0.000514 ± 0.016
UAGACUGUGACCAUCUCUGAGAGAUUAACA | 0.359 ± 0.025
UACACUGUCACCUUCUCACUGAGAUUUUGA | 0.00346 ± 0.0055
UAGUGACUCACCUUGACUGAGAGAUUAUGA | 0.000313 ± 0.028
UAGUGACAGUGCUUCUCUCAGUGAUUAACA | 0.000893 ± 0.0049
UAGACUGUCACCUUCUCUGACUCAUUAUGA | 0.00019 ± 0.013
UUCACACUCACCUUCUCUGAGAGAUUUUGA | 0.0972 ± 0.024
UAGUGACAGUGGAUCUCUGGAGAUUAACA | 0.000828 ± 0.0037
UAGUCUGUCACCUUCUCUGAGUGAUUUUGA | 0.00286 ± 0.0043
UAGACUGUCACCUUCUCUGACUCAUUUUGA | 0.000687 ± 0.0089
UUCACCGUCACCUUCUCUGAGAGAUUAACA | 0.698 ± 0.03
UAGUGACAGACCUUCUCUGAAGAUUAACA | 0.00135 ± 0.0052
UUCAGACUCACCUUCUCUGAGAGAUUAACA | 0.472 ± 0.035

6 consecutive records already listed, quoted:
Sequence | pre-steady-state target cleavage rate
UAGACUGUCACCUUCUCUGACUCAUUAUGA | 0.00019 ± 0.013
UUCACACUCACCUUCUCUGAGAGAUUUUGA | 0.0972 ± 0.024
UAGUGACAGUGGAUCUCUGGAGAUUAACA | 0.000828 ± 0.0037
UAGUCUGUCACCUUCUCUGAGUGAUUUUGA | 0.00286 ± 0.0043
UAGACUGUCACCUUCUCUGACUCAUUUUGA | 0.000687 ± 0.0089
UUCACCGUCACCUUCUCUGAGAGAUUAACA | 0.698 ± 0.03

The list continues.

Sequence | pre-steady-state target cleavage rate
AUGACUGUCACCUUCUCUGAGAGAUUAAGA | 0.205 ± 0.028
UAGUGAGUCACCUUCAGAGAGAGAUUUUGA | 0.00316 ± 0.006
UAGUGACAGUGGUCUCUGAGAGAUUAACA | 0.000322 ± 0.011
UAGUGACAGUGGUUUCUGAGAGAUUAACA | < 0.0001
UACACAGUCACGUUCUCUGAGAGAUUAACA | 0.679 ± 0.035
UAGUGACAGUGCUUCUCUGAGAAGAUUAACA | 0.002 ± 0.0038
AUCACUGUCACCUCCUCUGAGAGAUUAACA | 0.802 ± 0.033
UAGUGACAGUGGAAGAGAGAGAGAUUCACA | 0.00016 ± 0.038
UAGAGUGACACCUUCUCUGAGAGAUUAACA | 0.55 ± 0.023
UAGUGACAGUGCUUCUCGAGAGAUUAACA | 0.00157 ± 0.0066
UAGUGACAGUGCUUCUCUGAGUGAUUAACA | 0.00177 ± 0.0039
UAGUGUGUCACCUUGACUGAGAGAUUAUGA | 0.00151 ± 0.0069
UAGUGACAGACCAUCUCUGAGUGAUUAACA | 0.00232 ± 0.0036
UAGUGAGUCACCUUGACUGAGAGAUUUUGA | 0.000739 ± 0.017
UAGUGACAGUCCUACUCUGAGAGAUUAAGA | 0.000584 ± 0.0081
UAGUGACACACCUUGACUGAGAGAUUUUGA | 0.000795 ± 0.015
UAGUGACAGUCCUUCUCUGUGAGAUUAUGA | 0.000413 ± 0.011
UAGUGUGUCACCUUGAGUGAGAGAUUAUGA | 0.000237 ± 0.046
UUCACUGUCACCUUCUCUGAGUCAUUAAGA | 0.00191 ± 0.0035
UAGUGACAGUCCUACUGUGAGAGAUUAACA | 0.000137 ± 0.022
UAGUGACAGUGCUUCUCUGGAGAGAUUAACA | 0.000355 ± 0.014
UAGUGACAGUGGAAGAGUCAGAGUUUAACA | 0.000101 ± 0.036
UAGUGACUGUCCUUCUCUGAGAGAUUAUGA | 0.00171 ± 0.009
UACAACUGUCACCUUCUCUGAGAGAUUAACA | 0.744 ± 0.042

Sequence | pre-steady-state target cleavage rate
UAGUGACAGACCUUGUCAGAGAGAUUAACA | 0.00194 ± 0.0066
UAGUGUGUCACCUUCUCUGAGUCAUUAAGA | 0.00409 ± 0.0048
UAGUGACUCACCUUCUCUGUCUGAUAUUGA | 0.000198 ± 0.045
UACACUGUCACCUUCUCUGAGACUAUAUGA | 0.00209 ± 0.005
UAGUGACACACCUUGACUGAGAGAUUAAGA | 0.00167 ± 0.0059
AUCACUGUUCACCUUCUCUGAGAGAUUAACA | 0.79 ± 0.046
UAGUGACAGACCUUCUCUGAGAGUAUAAGA | 0.000105 ± 0.055
UAGUGACAGACCUUCUCUGAGAGAUAUAGA | 0.00215 ± 0.0044
AUCACGUCACCUUCUCUGAGAGAUUAACA | 0.732 ± 0.041
UAGUGACAGUGGAAGAGAGACAGAAUAACA | 0.000177 ± 0.035
UAGUGAGUCUGGUUCUCUGAGAGAUUAAGA | 0.000264 ± 0.014
UAGUGACAGUGGAUCUCUGGGAGAUUAACA | 0.000154 ± 0.018
UAGUCUGUCACCUUGACUGAGAGAUAUUGA | 0.000689 ± 0.0095
UUCCUGUCACCUUCUCUGAGAGAUUAACA | 0.633 ± 0.037
AUCACUGUCACCGUCUCUGAGAGAUUAACA | 0.608 ± 0.038
UAGUGACACACCUUCUCUGAGUGAUAUUGA | 0.00025 ± 0.026
UAGUGACAGUCCUACACUGAGAGAUUAACA | 0.000552 ± 0.01
UAGUGACUCACCAAGUCUGAGAGAUUAUGA | 0.000124 ± 0.039
UAGUGACUCACCAUCUCUGAGAGAUAUUGA | 0.00136 ± 0.0047
UUCACUGUCACCUUCUCACUGAGAUUAUGA | 0.0029 ± 0.0048
UAGACUGUCACCUUCUCUCUGAGAUUAAGA | 0.00246 ± 0.0032
UAGUGACAGACCUUCUCUGAGAGAAUAUGA | 0.000996 ± 0.009
UAGUGACACACCUUCUCUCUGAGAUUAUGA | 0.000767 ± 0.013
